Experimental data: patent US20150344535A1, “NEUROTROPHIN-TYROSINE KINASE RECEPTOR SIGNALING” (THE UNIVERSITY OF QUEENSLAND, priority 2012, published 2015)
These are yes or no findings as the source states them, for the method shown. Some entries that bind do so weakly or less than the wild type.

Amino acid sequences for entries named in this document (tags omitted). A change or cut given only in a name is not applied to a line headed by its entry. Chains listed by the source or under a name are the forms on record and can include a tag or linker. Residues count along the entry.
p75^Δ-JUX (P07174, form named): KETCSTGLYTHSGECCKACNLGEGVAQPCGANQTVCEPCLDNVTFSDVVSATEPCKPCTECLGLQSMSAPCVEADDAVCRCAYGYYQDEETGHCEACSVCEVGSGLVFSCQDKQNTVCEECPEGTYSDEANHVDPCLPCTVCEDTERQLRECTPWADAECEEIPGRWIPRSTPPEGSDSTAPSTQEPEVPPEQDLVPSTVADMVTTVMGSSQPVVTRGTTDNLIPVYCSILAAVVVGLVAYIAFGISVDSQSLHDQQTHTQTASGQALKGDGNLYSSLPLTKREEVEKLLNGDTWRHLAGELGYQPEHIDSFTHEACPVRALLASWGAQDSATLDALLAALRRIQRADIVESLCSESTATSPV
UniProt P01139, residues 122-239: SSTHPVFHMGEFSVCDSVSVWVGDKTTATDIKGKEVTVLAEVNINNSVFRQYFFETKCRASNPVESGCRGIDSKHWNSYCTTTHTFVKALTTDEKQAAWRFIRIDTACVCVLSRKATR

Target: p75^Δ-JUX (UniProt P07174)
Experiment: flow cytometry, 26 nM NGF-FITC 60 min on ice, transfected HEK293 cells

binding: binds
Substance: NGF-FITC (from UniProt P01139 122-239) (ligand)
